Measured values published in patent US7098025.
For part of these data: No signal at the amounts used counts as a negative. For part of these data: A weaker result is weaker than the reference pair of the same experiment. For part of these data: Construct, isoform or probe ends are uncertain for at least one entry.

Chains of the proteins cited; added tags and fusions are not shown. Lines headed by an entry give the natural chain unless they say otherwise; changes in a name come on top. Chains listed by the source or under a name are the forms on record and can include a tag or linker.
UniProt Q9WTN3: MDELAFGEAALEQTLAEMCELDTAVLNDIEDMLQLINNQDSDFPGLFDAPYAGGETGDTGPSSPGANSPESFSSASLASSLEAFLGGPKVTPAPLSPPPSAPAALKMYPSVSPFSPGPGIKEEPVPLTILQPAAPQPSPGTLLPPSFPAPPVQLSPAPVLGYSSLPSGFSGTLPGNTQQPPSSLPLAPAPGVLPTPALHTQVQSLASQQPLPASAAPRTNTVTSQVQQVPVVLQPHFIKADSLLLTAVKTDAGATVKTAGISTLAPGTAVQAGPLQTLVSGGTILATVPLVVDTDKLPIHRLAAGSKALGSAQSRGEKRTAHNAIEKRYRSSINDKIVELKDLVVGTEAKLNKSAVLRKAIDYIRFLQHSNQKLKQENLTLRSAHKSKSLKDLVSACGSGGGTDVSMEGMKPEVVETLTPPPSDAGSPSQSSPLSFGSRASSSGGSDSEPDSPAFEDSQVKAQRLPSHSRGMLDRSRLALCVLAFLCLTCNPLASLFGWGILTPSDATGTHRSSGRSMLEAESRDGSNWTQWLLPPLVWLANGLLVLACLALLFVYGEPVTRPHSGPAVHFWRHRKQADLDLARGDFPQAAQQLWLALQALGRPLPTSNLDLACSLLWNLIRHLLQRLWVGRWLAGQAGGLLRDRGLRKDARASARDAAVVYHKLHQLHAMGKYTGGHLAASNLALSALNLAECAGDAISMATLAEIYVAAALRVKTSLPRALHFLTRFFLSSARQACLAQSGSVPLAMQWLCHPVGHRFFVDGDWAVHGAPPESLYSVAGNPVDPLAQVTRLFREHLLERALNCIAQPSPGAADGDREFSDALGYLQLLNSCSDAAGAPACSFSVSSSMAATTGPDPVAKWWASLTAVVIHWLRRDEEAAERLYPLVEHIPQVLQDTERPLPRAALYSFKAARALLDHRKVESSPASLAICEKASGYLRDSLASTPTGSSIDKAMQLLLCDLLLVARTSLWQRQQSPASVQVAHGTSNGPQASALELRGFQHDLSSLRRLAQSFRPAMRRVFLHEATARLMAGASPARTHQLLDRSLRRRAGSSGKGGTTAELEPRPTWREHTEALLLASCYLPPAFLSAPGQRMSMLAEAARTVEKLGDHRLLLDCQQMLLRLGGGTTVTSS
PPARgamma2/RXRalpha heterodimer (Homo sapiens / Mus musculus), one chain, as listed by the source, chain 1 of 2: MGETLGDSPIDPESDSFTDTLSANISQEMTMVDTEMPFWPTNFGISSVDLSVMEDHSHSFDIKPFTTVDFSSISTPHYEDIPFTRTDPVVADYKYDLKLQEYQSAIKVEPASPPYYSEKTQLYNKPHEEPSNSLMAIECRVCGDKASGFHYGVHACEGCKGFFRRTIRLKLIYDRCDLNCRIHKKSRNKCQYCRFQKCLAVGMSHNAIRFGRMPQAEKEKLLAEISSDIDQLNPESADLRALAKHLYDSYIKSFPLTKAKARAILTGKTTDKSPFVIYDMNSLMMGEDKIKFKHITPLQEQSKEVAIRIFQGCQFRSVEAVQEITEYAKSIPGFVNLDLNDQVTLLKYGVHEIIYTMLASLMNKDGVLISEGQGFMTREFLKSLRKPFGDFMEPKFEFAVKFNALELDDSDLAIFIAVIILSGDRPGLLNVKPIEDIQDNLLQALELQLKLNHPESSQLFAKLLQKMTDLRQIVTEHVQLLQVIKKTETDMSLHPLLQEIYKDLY
PPARgamma2/RXRalpha heterodimer (Homo sapiens / Mus musculus), one chain, as listed by the source, chain 2 of 2: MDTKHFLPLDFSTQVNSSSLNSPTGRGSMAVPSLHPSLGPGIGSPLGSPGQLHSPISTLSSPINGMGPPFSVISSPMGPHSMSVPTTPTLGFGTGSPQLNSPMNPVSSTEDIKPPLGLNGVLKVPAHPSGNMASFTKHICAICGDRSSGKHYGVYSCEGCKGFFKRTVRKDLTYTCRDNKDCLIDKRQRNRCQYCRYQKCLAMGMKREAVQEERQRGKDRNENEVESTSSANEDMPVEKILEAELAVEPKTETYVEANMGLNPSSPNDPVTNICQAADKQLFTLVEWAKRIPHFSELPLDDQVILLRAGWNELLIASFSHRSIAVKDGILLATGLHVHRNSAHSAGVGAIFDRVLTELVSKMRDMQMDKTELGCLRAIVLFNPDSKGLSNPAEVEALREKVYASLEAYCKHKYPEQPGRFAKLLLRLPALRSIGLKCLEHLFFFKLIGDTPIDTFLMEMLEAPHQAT

Key:
[1] = system: PPARgamma2/RXRalpha heterodimer (Homo sapiens / Mus musculus); experiment: competition with a labelled probe; details: 10-200x cold competitor vs apoA-II J probe; less efficient than J site; protein translated in vitro; protein details: rabbit reticulocyte lysate (Promega)
[2] = system: ADD-1; experiment: activity in cells; details: pGL3gamma3p800-E-boxmut not stimulated, Hep G2, protein in cells, protein details: expression vector, variant of PPARgamma3 E-box (LF-102, core printed), only the site is given
[3] = target: SREBP-1a (Mus musculus) (UniProt Q9WTN3); experiment: activity in cells; details: qualitatively similar to ADD-1, Hep G2, protein in cells, protein details: expression vector, only the site is given
[4] = system: SREBP-1a (ADD-1/SREBP-1); experiment: competition with a labelled probe; details: unable to compete at 10-100x; purified recombinant protein; protein details: baculovirus-produced, partially purified; variant of PPARgamma3 E-box (LF-102, core printed)
[5] = system: ADD-1/SREBP-1; experiment: competition with a labelled probe; details: similar data with in vitro translated protein; protein translated in vitro; variant of PPARgamma3 E-box (LF-102, core printed)
[6] = system: SREBP-1a (ADD-1/SREBP-1); experiment: EMSA; details: purified recombinant protein; protein details: baculovirus-produced, partially purified; label: 32P (T4-PNK)
[7] = system: ADD-1/SREBP-1; experiment: EMSA; details: similar data with in vitro translated protein; protein translated in vitro; label: 32P (T4-PNK)

## GATCCGTCTGCCCTTTCCCCCTCTTCA (double strand) [LPL PPRE]
[1]
  binding result: binds more weakly

## ATTCATGCATCAT (double strand) [PPARgamma3 E-box mut (LF-106; core printed)]
[2]
  activity on this sequence: not active
[3]; variant of PPARgamma3 E-box (LF-102, core printed)
  activity on this sequence: not active
[4]
  binding result: no binding
[5]
  binding result: no binding

## GATCCCGAACGTGACCTTTGTCCTGGTCCC (double strand) [ACO PPRE]
[1]
  binding result: binds more weakly

## ATTCATGTGACAT (double strand) [PPARgamma3 E-box (LF-102; core printed)]
[3]
  activity on this sequence: active
[6]
  binding result: binds
[7]
  binding result: binds
